Experimental data published in PMC6988918.
No constants are given. Whether binding was seen depends on the method and setting. Binding seen in cells or lysates may run through a third protein. A yes stands for co-enrichment or nearness to the bait. Other partners may have been found. Each block holds one binder with its values, some of them ahead of it.

Target: Akt (protein kinase B) (rat (endogenous in rat cardiomyocytes))
Experiment: affinity purification with mass spectrometry; Akt precipitated with polyclonal Akt 1/2/3 antibody (sc-8312) and protein A-Sepharose from 1% NP-40 lysates of cardiomyocytes of control and MetS rats stimulated with 100 nM insulin for 10 min; label-free mass spectrometry of the immune complexes

B2: Isocitrate dehydrogenase [NADP], mitochondrial (protein, UniProt P56574 40-452)
chain: AEKRIKVEKPVVEMDGDEMTRIIWQFIKEKLILPHVDVQLKYFDLGLPNRDQTNDQVTIDSALATQKYSVAVKCATITPDEARVEEFKLKKMWKSPNGTIRNILGGTVFREPIICKNIPRLVPGWTKPITIGRHAHGDQYKATDFVVDRAGMFKLVFTPKDGSGAKEWEVYNFPAGGVGMGMYNTDESISGFAHSCFQYSIQKKWPLYLSTKNTIMKAYDGRFKDIFQEIFDKHYKTDFDKNKIWYEHRLIDDMVAQVLKSSGGFVWACKNYDGDVQSDILAQGFGSLGLMTSVLVCPDGKTIEAEAAHGTVTRHYREHQKGRPTSTNPIASIFAWTRGLEHRGKLDGNQDLIRFAQTLEKVCVQTVESGAMTKDLAGCIHGLSNVKLNEHFLNTTDFLDTIKSNLDRALGKQ
binding: binds

B6: Malate dehydrogenase, mitochondrial (protein, UniProt P04636 25-338)
chain: AKVAVLGASGGIGQPLSLLLKNSPLVSRLTLYDIAHTPGVAADLSHIETRANVKGYLGPEQLPDCLKGCDVVVIPAGVPRKPGMTRDDLFNTNATIVATLTAACAQHCPEAMICIISNPVNSTIPITAEVFKKHGVYNPNKIFGVTTLDIVRANTFVAELKGLDPARVNVPVIGGHAGKTIIPLISQCTPKVDFPQDQLATLTGRIQEAGTEVVKAKAGAGSATLSMAYAGARFVFSLVDAMNGKEGVIECSFVQSKETECTYFSTPLLLGKKGLEKNLGIGKITPFEEKMIAEAIPELKASIKKGEDFVKNMK
binding: binds

B7: Carnitine O-palmitoyltransferase 2, mitochondrial (protein, UniProt P18886 26-658)
chain: SAVSGPDDYLQHSIVPTMHYQDSLPRLPIPKLEDTMKRYLNAQKPLLDDSQFRRTEALCKNFETGVGKELHAHLLAQDKQNKHTSYISGPWFDMYLTARDSIVLNFNPFMAFNPDPKSEYNDQLTRATNLTVSAVRFLKTLQAGLLEPEVFHLNPSKSDTDAFKRLIRFVPPSLSWYGAYLVNAYPLDMSQYFRLFNSTRIPRPNRDELFTDTKARHLLVLRKGHFYVFDVLDQDGNIVNPLEIQAHLKYILSDSSPVPEFPVAYLTSENRDVWAELRQKLIFDGNEETLKKVDSAVFCLCLDDFPMKDLIHLSHTMLHGDGTNRWFDKSFNLIVAEDGTAAVHFEHSWGDGVAVLRFFNEVFRDSTQTPAITPQSQPAATNSSASVETLSFNLSGALKAGITAAKEKFDTTVKTLSIDSIQFQRGGKEFLKKKQLSPDAVAQLAFQMAFLRQYGQTVATYESCSTAAFKHGRTETIRPASIFTKRCSEAFVRDPSKHSVGELQHMMAECSKYHGQLTKEAAMGQGFDRHLYALRYLATARGLNLPELYLDPAYQQMNHNILSTSTLNSPAVSLGGFAPVVPDGFGIAYAVHDDWIGCNVSSYSGRNAREFLHCVQKCLEDIFDALEGKAIKT
binding: binds

B8: Aspartate aminotransferase, mitochondrial (protein, UniProt P00507 30-430)
chain: SSWWTHVEMGPPDPILGVTEAFKRDTNSKKMNLGVGAYRDDNGKPYVLPSVRKAEAQIAGKNLDKEYLPIGGLADFCKASAELALGENSEVLKSGRFVTVQTISGTGALRVGASFLQRFFKFSRDVFLPKPSWGNHTPIFRDAGMQLQGYRYYDPKTCGFDFSGALEDISKIPEQSVLLLHACAHNPTGVDPRPEQWKEMAAVVKKKNLFAFFDMAYQGFASGDGDKDAWAVRHFIEQGINVCLCQSYAKNMGLYGERVGAFTVVCKDAEEAKRVESQLKILIRPLYSNPPLNGARIAATILTSPDLRKQWLQEVKGMADRIISMRTQLVSNLKKEGSSHNWQHITDQIGMFCFTGLKPEQVERLTKEFSVYMTKDGRISVAGVTSGNVGYLAHAIHQVTK
binding: binds

B9: ADP/ATP translocase 1 (protein, UniProt Q05962 1-298)
chain: MGDQALSFLKDFLAGGIAAAVSKTAVAPIERVKLLLQVQHASKQISAEKQYKGIIDCVVRIPKEQGFLSFWRGNLANVIRYFPTQALNFAFKDKYKQIFLGGVDRHKQFWRYFAGNLASGGAAGATSLCFVYPLDFARTRLAADVGKGSSQREFNGLGDCLTKIFKSDGLKGLYQGFSVSVQGIIIYRAAYFGVYDTAKGMLPDPKNVHIIVSWMIAQSVTAVAGLVSYPFDTVRRRMMMQSGRKGADIMYTGTVDCWRKIAKDEGRKAFFKGAWSNVLRGMGGAFVLVLYDEIKKYV
binding: binds

B10: Citrate synthase, mitochondrial (protein, UniProt Q8VHF5 28-466)
chain: ASSTNLKDILSNLIPKEQARVKTFRQQHGKTVVGQITVDMMYGGMRGMKGLVYETSVLDPDEGIRFRGYSIPECQKLLPKAKGGEEPLPEGLFWLLVTGQMPTEEQVSWLSQEWAKRAALPSHVVTMLDNFPTNLHPMSQLSAAITALNSESNFARAYAEGINRTKYWELIYEDCMDLIAKLPCVAAKIYRNLYREGSSIGAIDSKLDWSHNFTNMLCYTEPQFTELMRLYLTIHSDHDGGNVSAHTSHLVGSALSDTYLSFAAAMNGLAGPLHGLANQEVLVWLTQLQKEVGKDVSDEKLRDYIWNTLNSGRVVPGYGHAVLRKTDPRYSCQREFALKHLPKDPMFKLVAQLYKIVPNILLEQGKAKNPWPNVDAHSGVLLQYYGMTEMNYYTVLFGVSRALGVLAQLIWSRALGFPLERPKSMSTDGLMKFVDSKSG
binding: binds

B11: Aconitate hydratase, mitochondrial (protein, UniProt Q9ER34 28-780)
chain: QRAKVAMSHFEPSEYIRYDLLEKNINIVRKRLNRPLTLSEKIVYGHLDDPANQEIERGKTYLRLRPDRVAMQDATAQMAMLQFISSGLPKVAVPSTIHCDHLIEAQLGGEKDLRRAKDINQEVYNFLATAGAKYGVGFWRPGSGIIHQIILENYAYPGVLLIGTDSHTPNGGGLGGICIGVGGADAVDVMAGIPWELKCPKVIGVKLTGTLSGWTSPKDVILKVAGILTVKGGTGAIVEYHGPGVDSISCTGMATICNMGAEIGATTSVFPYNHRMKKYLSKTGRADIANLAEEFKDHLVPDPGCQYDQVIEINLNELKPHINGPFTPDLAHPVADVGTVAEKEGWPLDIRVGLIGSCTNSSYEDMGRSAAVAKQALAHGLKCKSQFTITPGSEQIRATIERDGYAQILRDVGGIVLANACGPCIGQWDRKDIKKGEKNTIVTSYNRNFTGRNDANPETHAFVTSPEIVTALAIAGTLKFNPETDFLTGKDGKKFKLEAPDADELPRSDFDPGQDTYQHPPKDSSGQRVDVSPTSQRLQLLEPFDKWDGKDLEDLQILIKVKGKCTTDHISAAGPWLKFRGHLDNISNNLLIGAINIENGKANSVRNAVTQEFGPVPDTARYYKKHGIRWVVIGDENYGEGSSREHAALEPRHLGGRAIITKSFARIHETNLKKQGLLPLTFADPSDYNKIHPVDKLTIQGLKDFAPGKPLNCIIKHPNGTQETILLNHTFNETQIEWFRAGSALNRMKELQQ
binding: binds

Next, values leading:

binding: binds
B1: Transmembrane protein 143 (protein, UniProt D3ZSD8 1-458)
chain: MTVARWLRLWEKGQAMLHVTWGSRVRVWSLVPALLGTPRALSSLENRMGAYRKMWNPKEPCNWAQQYRERFIPFSREQLLRLLIQEFHSSPAERAALEAFSAHVDFCTLSHYHQLLARLQALYDPINPDRETLDQPSLTDPERLSSEKEVLQALKPLLAQANFSPLSEDALAYALVVHHPQDEVQVTINLDQYIYIQFWALGQRVGQMPHKSSVGSKRGFFRKLPPVERRYFKRVVLAARTKGGHLVLKSFKDTPLEGLEQLLPELKVRTPMMQRALLNLMLVVSGVVFFVNVGMVILSDLKMATSLLLLLFAAFMGIRASKVFGQRRSAQALELAHMLYYRSTSNNSELLSALALRAQEEHIKEALLAHSFLGRQPGGPQGTPEETSRWLQSEVESWLLAQSGCDVTFNGPRALAHLQALTPSFGLFPPPELPQLDPLVLGTPEAPQAALGSSYPSP

binding: binds
B3: Ubiquitin specific protease 25 (Predicted) (protein, UniProt D4ACD3 1-1055)
chain: MTVEQNVLQQSAAQKHQQTFLNQLREITGINDAQILQQALKDSNGNLELAVAFLTAKNAKTPPQEETAYYQTAALPGSDRYISVGSQADANVIDLTGDDKDDLQRAIALSLAESNRTFRETGITDEEQAISRVLEASIAENKACLKRTPIEVWRDSRNPYDRKRQDKAPVGLKNVGNTCWFSAVIQSLFNLLEFRRLVLNYKPPSNAQDLPRNQKEHRNLPFMRELRYLFALLVGTKRKYVDPSRAVEILKDAFKSNDSQQQDVSEFTHKLLDWLEDAFQMKAEEETDEEKPKNPMVELFYGRFLAMGVLEGKKFENTEMFGQYPLQVNGFKDLHECLEAAMIEGEIESLHSDNSGKSGQEHWFTELPPVLTFELSRFEFNQALGRPEKIHNKLEFPQVLYLDRYMHRNREITRIKREEIKRLKDYLTVLQQRLERYLSYGSGPKRFPLVDVLQYALEFASSKPVCTSPVDDIDATSSTSGSTSSQSLPSTTEQQGTPASDLPSSSPASGAALSLRSVIHKPFTQSRIPPDLPMHPAPRHITEEELSVLESCLHRWRTEIENDTRDLQESISRIHRTIELMYSDKSMIQVPYRLHAVLVHEGQANAGHYWAYIFDHRESRWMKYNDIAVTKSSWEELVRDSFGGYRNASAYCLMYINDKAQFLIQEEFNKETGQALVGMETLPPDLRDFVEEDNQRFEKELEDWDTQLAQRALQEKLLAAQKLREAESSAPTAQAGGPDYLEQPSRSDLSKHWKEETLRVIAKASHDHEDKGPETVLQSAIKLEYSRLVKLAQEDTPPETDYRLHHVLVYFIQNQAPKKIIEKTLLEQFGDRNLSFDERCHNIMKVAQAKLEMIKPEEVNLEEYEEWHADYKKFRETTMYLIIGLENFQRESYIDSLLFLICAYQNNKELLSKGPYRGHDGDLISHYRRECLLKLNEQAAELFESGEDREVSNGLIIMNEFIVPFLPLLLVDETEERDILAVEDMRNRWCSYLGQDMEPNLQEKLTDFLPKLLDCSTEIKGFHEPPKLPSYSAHELCERFARIMLSLSRTPADGR

binding: binds
B4: Trifunctional enzyme subunit beta, mitochondrial (protein, UniProt Q60587 35-475)
chain: SAPAVQTKSKKTLAKPNLKNIVVVEGVRIPFLLSGTSYKDLMPHDLARAALSGLLYRTNIPKDVVDYIIFGTVIQEVKTSNVAREAALGAGFSDKTPAHTVTMACISSNQAMTTAVGLIASGQCDVVVAGGVELMSDVPIRHSRNMRKMMLDLNKAKTLAQRLSLLTKFRLNFLSPELPAVAEFSTNETMGHSADRLAAAFAVSRMEQDKYALRSHSLAKKAQDEGHLSDIVPFKVPGKDTVSKDNGIRPSSLEQMAKLKPAFIKPYGTVTAANSSFLTDGASAMLIMSEDRALAMGYKPKAYLRDFIYVSQDPKDQLLLGPTYATPKVLEKAGLTMNDIDAFEFHEAFSGQILANFKAMDSDWFAQNYMGRKTKVGAPPLEKFNIWGGSLSLGHPFGATGCRLVMAAANRLRKDGGQYALVAACAAGGQGHAMIVEAYPK

binding: binds
B5: Pyruvate dehydrogenase E1 component subunit beta (protein, UniProt P49432 31-359)
chain: VQLTVREAINQGMDEELERDEKVFLLGEEVAQYDGAYKVSRGLWKKYGDKRIIDTPISEMGFAGIAVGAAMAGLRPICEFMTFNFSMQAIDQVINSAAKTYYMSAGLQPVPIVFRGPNGASAGVAAQHSQCFAAWYGHCPGLKVVSPWNSEDAKGLIKSAIRDDNPVVMLENELMYGVAFELPTEAQSKDFLIPIGKAKIERQGTHITVVAHSRPVGHCLEAAAVLSKEGIECEVINLRTIRPMDIEAIEASVMKTNHLVTVEGGWPQFGVGAEICARIMEGPAFNFLDAPAVRVTGADVPMPYAKILEDNSIPQVKDIIFAIKKTLNI
